# Reference: PubChem BioAssay AID504467 (National Center for Advancing Translational Sciences (NCATS), 2011)
# Among all 330,000 compounds or so, about 7,700 (2.3%) were called active. This list was built around the results that the source calls inconclusive (neither active nor inactive); the mix of calls is not that of the screen. Calls come from the whole dose curve; as a rule, active = well fitted inhibition curve with a large enough effect; inconclusive = small, poorly fitted or top-dose-only effect, or effect the other way; inactive = flat fitted curve, though single readings scatter. A potency beside an inconclusive call is a rough fit, not a confirmed value.
# Experiment: qHTS screen for small molecules that inhibit ELG1-dependent DNA repair in human embryonic kidney (HEK293T) cells expressing luciferase-tagged ELG1; note: nearly all actives have a fitted effect of over 55% in size
# Conditions: HEK293T ELG1-luciferase reporter, luminescence, 16 h, DNA damage induced by 5-fluorouridine; activity change, negative = inhibition: at 46.1 µM (top of the series)
# Method in brief: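 Cells (2,000 per well) received 5-fluorouridine plus test compound or DMSO and were incubated 16 hr at 37 °C, 5% CO2. Luciferase activity was read by luminescence 30 min after ONE-Glo addition; signal suppression marked inhibition of damage-induced ELG1 function.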
# % is set by controls: 0 for no effect and ±100 for the full control effect; potency is the fitted concentration of half-maximal effect.
SMILES,"activity change, negative = inhibition",Potency
O=C(NCCCNC(=O)c1ccccc1F)c1ccco1,inactive: 18%,
CC(C)=CCc1c(O)c(CC=C(C)C)c2occ(-c3ccc(O)cc3)c(=O)c2c1O,,"inconclusive: 29.1 µM [inhibitor, partial curve, poor fit]"
Cc1cccc(CN2CCN(C(=O)CCl)CC2)c1,,"inconclusive: 18.4 µM [inhibitor, partial curve]"
Cc1ncsc1CCOC(=O)c1ccc(N2CCOCC2)c([N+](=O)[O-])c1,,"inconclusive: 20.6 µM [inhibitor, single point]"
O=C(Cc1ccc(Br)cc1)NCc1ccccc1,,"inconclusive: 29.1 µM [activator, single point]"
CN(CC(=O)Nc1ccccc1Cl)C(=O)CCc1nc2ccccc2c(=O)[nH]1,,"inconclusive: 1.64 µM [activator, partial curve, poor fit]"
COc1ccc(-c2coc3cc(O)c(OC)cc3c2=O)cc1,,"inconclusive: 14.6 µM [activator, partial curve]"
COc1ccc(-c2c(C)oc3ccc(C)cc23)cc1,inactive: -2.34%,
CCOC(=O)c1c(C)nc(C)c(C(=O)OCC)c1-c1ccc(Br)cc1,,"inconclusive: 23.1 µM [inhibitor, single point]"
CC(C)(C)C1CCc2c(sc(NC(=O)CSc3ncn[nH]3)c2C#N)C1 (centres undefined),,"inconclusive: 23.1 µM [inhibitor, single point]"
CCCOc1cccc(C(=O)NC(=S)Nc2ccccc2)c1,,"inconclusive: 16.4 µM [activator, partial curve]"
Cc1ccc(-c2[nH]nc(N)c2N=Nc2cccc(Cl)c2C)cc1,,"inconclusive: 29.1 µM [inhibitor, single point]"
O=C(Cc1cn2ccsc2n1)OCc1ccccc1,,"inconclusive: 29.1 µM [activator, single point]"
Cc1nn(Cc2c(F)c(F)c(F)c(F)c2F)c(C)c1NC(=O)c1cccc(COc2ccc(Cl)cc2)c1,,"inconclusive: 16.4 µM [activator, partial curve]"
O=C(CCN1C(=O)[C@@H]2Cc3ccccc3CN2C1=O)N[C@H](C(=O)O)c1ccccc1,inactive: 5.28%,
Cc1ccc(S(=O)(=O)c2nnn3c2nc(N2CCCCC2)c2ccccc23)cc1,inactive: -20.6%,
C/C(=N\OCC(=O)N/N=C/c1ccccc1)c1cccs1,inactive: -11.8%,
CCN(CC)C(=O)CSc1nc2c(sc(=S)n2-c2ccccc2)c(=O)n1-c1ccccc1OC,,"inconclusive: 13 µM [inhibitor, partial curve]"
O=C(CSc1nnnn1-c1ccccc1)CSc1nnnn1-c1ccccc1,,"inconclusive: 32.6 µM [inhibitor, single point]"
O=C(CCCn1c(=O)[nH]c2cc(Cl)ccc2c1=O)NCCN1CCN(c2ccccc2)CC1,,"inconclusive: 29.1 µM [inhibitor, single point]"
CCn1c(COc2ccc(Cl)cc2)nnc1SCc1ccc(C#N)cc1,,"inconclusive: 18.4 µM [inhibitor, single point]"
O=C(OCc1nc2ccccc2s1)c1cnccn1,,"inconclusive: 20.6 µM [activator, partial curve]"
CCC(=O)Nc1nc2ccc3nc(C)sc3c2s1,,"inconclusive: 11.6 µM [activator, partial curve]"

SMILES,"activity change, negative = inhibition",Potency
Cc1ccc2cc(/C=N/Nc3ccc(C(=O)O)cc3)c(Cl)nc2c1,,"inconclusive: 3.26 µM [activator, full curve]"
COCCn1c(-c2ccc(OC)cc2)cnc1SCC(=O)Nc1cc(C)on1,,"inconclusive: 18.4 µM [inhibitor, partial curve]"
Cc1ccccc1NC(=S)NCC1CCC(CNC(=S)Nc2ccccc2C)CC1 (centres undefined),,"inconclusive: 23.1 µM [inhibitor, single point]"
COc1cc(-c2ccccc2)[nH]c(=S)n1,,"inconclusive: 25.9 µM [activator, single point]"
Cc1cc(C)nc(Nc2ccccc2Br)n1,inactive: 0%,
Cn1ccsc1=NC(=O)c1ccc(S(=O)(=O)C(F)F)cc1,,"inconclusive: 20.6 µM [activator, partial curve]"
N=c1n(Cc2ccccc2)c2ccccc2n1CC(O)c1ccco1 (centres undefined),,"inconclusive: 25.9 µM [inhibitor, single point]"
Cc1ccc(O)c(-c2cc(-c3ccccc3C)[nH]n2)c1,,"inconclusive: 29.1 µM [inhibitor, single point]"
CCCC(=O)N(CCN1CCOCC1)c1nc2c(F)cc(F)cc2s1,,"inconclusive: 20.6 µM [activator, partial curve]"
Cc1cc(C(=O)Nc2cccc3cccnc23)ccc1[N+](=O)[O-],,"inconclusive: 20.6 µM [activator, single point]"
Cc1ccc(S(=O)(=O)C2(C(=O)Nc3ccc(C(C)C)cc3)CC2)cc1,,"inconclusive: 0.259 µM [activator, full curve, poor fit]"
Nn1c(SCc2ccccc2)nnc1-c1ccccn1,,"inconclusive: 16.4 µM [activator, partial curve]"
CCOC(=O)NC(=O)COC(=O)CCCc1nc2ccccc2s1,inactive: -4.3%,
O=C(Cn1nc(-c2ccc(Cl)cc2)ccc1=O)NCCCN1CCN(Cc2ccccc2)CC1,inactive: -6.23%,
Cc1cc(C)cc(-n2c(C)cc(/C=C3\C(=N)N4N=C(CC(C)C)SC4=NC3=O)c2C)c1,inactive: -0.704%,
COC1CCN(C(=O)c2cc(COc3ccc(-n4cncn4)cc3)on2)CC1,,"inconclusive: 16.4 µM [activator, single point]"
CC(=O)Nc1ccc(NC(=O)CCCn2cnc3ccccc3c2=O)cc1,inactive: 3.52%,
O=C(CN(C(=O)c1csnn1)c1ccccc1F)NC1CCCCC1,inactive: 13.4%,
CC(=O)c1c(C)[nH]c(C(=O)CSc2nnc(-c3cccs3)n2Cc2ccccc2)c1C,,"inconclusive: 18.4 µM [inhibitor, single point]"
COc1ccc(-c2c/c(=N\c3nc(-c4ccccc4)c(C)s3)c3ccccc3o2)cc1O,,"inconclusive: 25.9 µM [inhibitor, partial curve, poor fit]"
O=C(NC(C(=O)c1ccccc1)n1cnccc1=O)c1ccccc1 (centres undefined),,"inconclusive: 20.6 µM [activator, single point]"
O=S(=O)(Cc1cc(NCc2ccccc2)nc(-c2ccncc2)n1)c1ccccc1,,"inconclusive: 1.16 µM [inhibitor, single point]"
CC[C@]12c3[nH]c4cc(-c5ccco5)ccc4c3CCN1C(=O)[C@@H](CC(=O)NC(C)(C)C)C[C@@H]2C(=O)N1CCN(C(=O)c2ccco2)CC1,inactive: -23.8%,

# Of the compounds above, these contain a furan ring, fused or not.
SMILES,"activity change, negative = inhibition",Potency
O=C(NCCCNC(=O)c1ccccc1F)c1ccco1,inactive: 18%,
COc1ccc(-c2c(C)oc3ccc(C)cc23)cc1,inactive: -2.34%,
N=c1n(Cc2ccccc2)c2ccccc2n1CC(O)c1ccco1 (centres undefined),,"inconclusive: 25.9 µM [inhibitor, single point]"
CC[C@]12c3[nH]c4cc(-c5ccco5)ccc4c3CCN1C(=O)[C@@H](CC(=O)NC(C)(C)C)C[C@@H]2C(=O)N1CCN(C(=O)c2ccco2)CC1,inactive: -23.8%,

# Going on with the list.

SMILES,"activity change, negative = inhibition",Potency
O=C(N/N=C/c1ccc(OCc2ccccc2)cc1)c1cccs1,,"inconclusive: 6.51 µM [activator, partial curve]"
Cc1ccc(C(=O)N2CCN(c3ncc(C(F)(F)F)cc3Cl)CC2)s1,,"inconclusive: 0.461 µM [activator, full curve]"
O=C(c1ccco1)N1CCN(CCOCCOc2cccc3ccccc23)CC1,,"inconclusive: 32.6 µM [inhibitor, partial curve, poor fit]"
O=C1/C(=C\c2ccc(Br)o2)Cc2ccccc21,,"inconclusive: 20.6 µM [activator, partial curve]"
CC(C)[C@H](NS(=O)(=O)c1ccccc1)C(=O)Nc1ccccc1N1CCOCC1,inactive: 8.48%,
Cc1ccc2nc(NC(=O)CCn3cccc3)sc2c1,,"inconclusive: 18.3 µM [activator, partial curve]"
CCSc1nc(C)c(C)c(=O)[nH]1,inactive: 14.2%,
O=C(CCCn1nnnc1CN1CCOCC1)N1CCC(c2ccccc2Cl)C1 (centres undefined),inactive: 9.07%,
O=C(/C=C/c1ccc(F)cc1)N1CCc2ccccc2C1,,"inconclusive: 15.8 µM [activator, partial curve]"
C=CCn1c(SCC(=O)NC2CCCC2)nc2scc(-c3ccco3)c2c1=O,,"inconclusive: 18.4 µM [inhibitor, partial curve, poor fit]"
COc1ccc(CNC(=S)Nc2ccc(-c3ccccc3)cc2)cc1,,"inconclusive: 25.9 µM [activator, partial curve, poor fit]"
CN1CCN(C=Nc2nc3ccccc3nc2N2CCCC2)CC1,inactive: -2.08%,
Cc1onc(-c2ccccc2)c1C(=O)NC(=S)NNC(=O)c1cc(-c2ccc(F)cc2)n[nH]1,,"inconclusive: 23.1 µM [inhibitor, partial curve]"
COC(=O)c1sccc1NC(=O)CSc1ccccc1N,inactive: -7.19%,
COc1ccc(CCNC(=O)C2CCN(Cc3nc(-c4ccccc4C)oc3C)CC2)cc1OC,,"inconclusive: 23.1 µM [inhibitor, partial curve, poor fit]"
COc1ccc(CCn2c(=N)c(S(=O)(=O)c3ccc(C)cc3)cc3c(=O)n4ccccc4nc32)cc1,inactive: -9.07%,
COc1ccc(CNS(=O)(=O)c2ccc(-c3ccc(=O)[nH]n3)s2)cc1OC,inactive: -2.95%,
CCOc1c(C)cnc2c1c(=O)n(Cc1ccccc1Cl)c(=O)n2C,inactive: -3.19%,
CCCCSc1nnc2c(n1)[nH]c1ccccc12,,"inconclusive: 2.31 µM [activator, partial curve]"
Cc1cccc(C)c1OCCN1CCOCC1,,"inconclusive: 0.164 µM [activator, single point]"
CN(C)CCCN(C(=O)c1ccc(C(=O)c2ccccc2)cc1)c1nc2ccc(F)cc2s1,,"inconclusive: 29.1 µM [inhibitor, single point]"
CN(C)S(=O)(=O)c1cc(NC(=O)CN2CCc3ccccc32)ccc1Cl,,"inconclusive: 25.9 µM [inhibitor, partial curve, poor fit]"
CCC/C=N/NC(=O)c1cc(Br)ccc1O,inactive: 8.88%,
